In publication PMC5562444:
Like-named read-outs stand apart in the source and are kept apart here. These are yes or no findings as the source states them, for the method shown. In cells and extracts the contact can be indirect. A yes stands for co-enrichment or nearness to the bait. Other partners may have been found.

Protein sequences, listed by entry. Tags and fused reporters are not part of them.
UniProt Q9BQ69: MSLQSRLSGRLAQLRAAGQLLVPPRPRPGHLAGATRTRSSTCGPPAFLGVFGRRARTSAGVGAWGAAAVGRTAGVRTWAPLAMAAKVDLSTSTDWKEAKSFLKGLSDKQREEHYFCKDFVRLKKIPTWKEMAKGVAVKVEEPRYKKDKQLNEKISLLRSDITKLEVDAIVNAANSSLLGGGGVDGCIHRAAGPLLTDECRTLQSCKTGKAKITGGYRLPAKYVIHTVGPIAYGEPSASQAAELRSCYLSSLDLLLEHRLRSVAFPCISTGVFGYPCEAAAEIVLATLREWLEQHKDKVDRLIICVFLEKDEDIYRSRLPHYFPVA
UniProt P19525: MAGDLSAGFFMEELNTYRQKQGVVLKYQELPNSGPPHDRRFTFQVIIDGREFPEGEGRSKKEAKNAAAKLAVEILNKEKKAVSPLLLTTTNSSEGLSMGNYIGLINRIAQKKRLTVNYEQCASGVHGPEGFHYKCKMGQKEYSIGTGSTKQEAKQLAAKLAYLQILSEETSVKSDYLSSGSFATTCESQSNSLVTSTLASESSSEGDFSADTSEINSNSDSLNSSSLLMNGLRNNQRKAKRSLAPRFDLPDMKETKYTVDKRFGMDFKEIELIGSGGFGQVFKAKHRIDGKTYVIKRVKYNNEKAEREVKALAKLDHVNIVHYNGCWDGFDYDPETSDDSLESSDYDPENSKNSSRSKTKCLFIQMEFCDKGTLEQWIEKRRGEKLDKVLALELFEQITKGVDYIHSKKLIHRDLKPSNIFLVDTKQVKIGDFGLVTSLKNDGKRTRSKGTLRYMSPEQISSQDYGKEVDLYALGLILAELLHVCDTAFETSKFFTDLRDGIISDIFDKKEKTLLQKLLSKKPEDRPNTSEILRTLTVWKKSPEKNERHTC

B1: IKKβ, endogenous (protein, UniProt O14920 1-756)
chain: MSWSPSLTTQTCGAWEMKERLGTGGFGNVIRWHNQETGEQIAIKQCRQELSPRNRERWCLEIQIMRRLTHPNVVAARDVPEGMQNLAPNDLPLLAMEYCQGGDLRKYLNQFENCCGLREGAILTLLSDIASALRYLHENRIIHRDLKPENIVLQQGEQRLIHKIIDLGYAKELDQGSLCTSFVGTLQYLAPELLEQQKYTVTVDYWSFGTLAFECITGFRPFLPNWQPVQWHSKVRQKSEVDIVVSEDLNGTVKFSSSLPYPNNLNSVLAERLEKWLQLMLMWHPRQRGTDPTYGPNGCFKALDDILNLKLVHILNMVTGTIHTYPVTEDESLQSLKARIQQDTGIPEEDQELLQEAGLALIPDKPATQCISDGKLNEGHTLDMDLVFLFDNSKITYETQISPRPQPESVSCILQEPKRNLAFFQLRKVWGQVWHSIQTLKEDCNRLQQGQRAAMMNLLRNNSCLSKMKNSMASMSQQLKAKLDFFKTSIQIDLEKYSEQTEFGITSDKLLLAWREMEQAVELCGRENEVKLLVERMMALQTDIVDLQRSPMGRKQGGTLDDLEEQARELYRRLREKPRDQRTEGDSQEMVRLLLQAIQSFEKKVRVIYTQLSKTVVCKQKALELLPKVEEVVSLMNEDEKTVVRLQEKRQKELWNLLKIACSKVRGPVSGSPDSMNASRLSQPGQLMSQPSTASNSLPEPAKKSEELVAEAHNLCTLLENAIQDTVREQDQSFTALDWSWLQTEEEEHSCLEQAS

Key:
[1] = target: Leukemia-Related Protein 16 (LRP16), endogenous (human (endogenous in SW480, SW620, HCT116)) (UniProt Q9BQ69); assay: affinity purification with mass spectrometry; total lysate of SW620 cells, affinity purification with an anti-LRP16 antibody, SDS-PAGE, silver stain, bands excised, LC–MS/MS
[2] = target: Leukemia-Related Protein 16 (LRP16), endogenous (human (endogenous in SW480, SW620, HCT116)) (UniProt Q9BQ69); assay: as above; remark: listed apart in the source

Molecule | binding [1] | binding [2]
double-stranded RNA-dependent protein kinase PKR, endogenous (from UniProt P19525 1-551) | binds | 
B1 |  | binds
